Reference: the supplement of paper PMC10849652
The other results are listed elsewhere or left out.

By UniProt entry, the sequences of proteins in these tests, tags left out. Where a name states a change or a piece, a line headed by the entry shows the natural chain unless it says otherwise.
UniProt Q9UEY8: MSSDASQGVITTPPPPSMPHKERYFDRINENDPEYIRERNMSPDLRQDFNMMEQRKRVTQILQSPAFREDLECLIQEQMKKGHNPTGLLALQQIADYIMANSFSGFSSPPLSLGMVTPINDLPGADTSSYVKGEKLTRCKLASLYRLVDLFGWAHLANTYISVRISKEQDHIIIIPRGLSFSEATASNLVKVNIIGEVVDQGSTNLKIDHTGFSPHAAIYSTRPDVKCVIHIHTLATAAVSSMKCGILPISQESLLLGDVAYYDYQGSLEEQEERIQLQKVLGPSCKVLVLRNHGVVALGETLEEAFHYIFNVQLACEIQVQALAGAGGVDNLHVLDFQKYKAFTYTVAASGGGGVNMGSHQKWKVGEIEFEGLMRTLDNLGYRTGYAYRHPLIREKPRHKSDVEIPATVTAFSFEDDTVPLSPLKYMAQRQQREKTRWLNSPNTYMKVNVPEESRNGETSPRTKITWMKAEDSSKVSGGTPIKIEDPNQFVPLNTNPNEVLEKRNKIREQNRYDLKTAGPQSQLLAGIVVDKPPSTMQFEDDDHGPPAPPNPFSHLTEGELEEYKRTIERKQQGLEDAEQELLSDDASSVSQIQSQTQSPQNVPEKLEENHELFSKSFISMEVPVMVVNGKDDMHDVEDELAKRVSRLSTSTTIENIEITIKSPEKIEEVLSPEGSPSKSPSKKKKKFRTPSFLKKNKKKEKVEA
UniProt P04075: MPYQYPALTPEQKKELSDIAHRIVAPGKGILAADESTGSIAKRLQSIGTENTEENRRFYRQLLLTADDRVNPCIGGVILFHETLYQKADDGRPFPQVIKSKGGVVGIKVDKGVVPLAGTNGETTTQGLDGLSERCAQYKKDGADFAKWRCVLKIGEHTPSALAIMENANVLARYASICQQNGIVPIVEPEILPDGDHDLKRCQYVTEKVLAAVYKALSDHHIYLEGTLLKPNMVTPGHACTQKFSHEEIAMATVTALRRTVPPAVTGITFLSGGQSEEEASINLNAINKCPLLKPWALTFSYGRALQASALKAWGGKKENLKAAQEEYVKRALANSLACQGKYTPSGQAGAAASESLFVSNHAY
UniProt Q9UPQ3: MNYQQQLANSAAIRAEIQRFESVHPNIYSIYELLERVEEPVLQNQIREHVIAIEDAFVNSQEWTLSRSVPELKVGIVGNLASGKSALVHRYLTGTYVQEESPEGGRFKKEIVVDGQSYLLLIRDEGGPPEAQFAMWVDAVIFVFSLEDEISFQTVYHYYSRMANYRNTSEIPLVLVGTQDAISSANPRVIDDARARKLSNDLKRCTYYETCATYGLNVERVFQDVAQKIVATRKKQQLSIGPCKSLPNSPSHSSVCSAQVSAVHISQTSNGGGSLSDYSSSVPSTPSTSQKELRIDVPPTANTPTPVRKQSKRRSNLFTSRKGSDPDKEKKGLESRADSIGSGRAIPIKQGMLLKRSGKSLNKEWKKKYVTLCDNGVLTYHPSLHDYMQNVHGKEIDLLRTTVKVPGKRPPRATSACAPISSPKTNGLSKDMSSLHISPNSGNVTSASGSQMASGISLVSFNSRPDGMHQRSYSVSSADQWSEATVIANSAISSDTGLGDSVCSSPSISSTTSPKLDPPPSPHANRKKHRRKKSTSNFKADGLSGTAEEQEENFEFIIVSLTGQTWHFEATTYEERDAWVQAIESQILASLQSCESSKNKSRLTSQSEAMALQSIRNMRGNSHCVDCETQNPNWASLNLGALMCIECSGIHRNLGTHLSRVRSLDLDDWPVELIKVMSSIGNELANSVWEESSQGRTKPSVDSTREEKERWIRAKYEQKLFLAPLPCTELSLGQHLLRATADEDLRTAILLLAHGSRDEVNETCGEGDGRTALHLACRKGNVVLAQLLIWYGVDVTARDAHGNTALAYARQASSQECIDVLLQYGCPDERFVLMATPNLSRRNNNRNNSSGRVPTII
UniProt Q9NP73: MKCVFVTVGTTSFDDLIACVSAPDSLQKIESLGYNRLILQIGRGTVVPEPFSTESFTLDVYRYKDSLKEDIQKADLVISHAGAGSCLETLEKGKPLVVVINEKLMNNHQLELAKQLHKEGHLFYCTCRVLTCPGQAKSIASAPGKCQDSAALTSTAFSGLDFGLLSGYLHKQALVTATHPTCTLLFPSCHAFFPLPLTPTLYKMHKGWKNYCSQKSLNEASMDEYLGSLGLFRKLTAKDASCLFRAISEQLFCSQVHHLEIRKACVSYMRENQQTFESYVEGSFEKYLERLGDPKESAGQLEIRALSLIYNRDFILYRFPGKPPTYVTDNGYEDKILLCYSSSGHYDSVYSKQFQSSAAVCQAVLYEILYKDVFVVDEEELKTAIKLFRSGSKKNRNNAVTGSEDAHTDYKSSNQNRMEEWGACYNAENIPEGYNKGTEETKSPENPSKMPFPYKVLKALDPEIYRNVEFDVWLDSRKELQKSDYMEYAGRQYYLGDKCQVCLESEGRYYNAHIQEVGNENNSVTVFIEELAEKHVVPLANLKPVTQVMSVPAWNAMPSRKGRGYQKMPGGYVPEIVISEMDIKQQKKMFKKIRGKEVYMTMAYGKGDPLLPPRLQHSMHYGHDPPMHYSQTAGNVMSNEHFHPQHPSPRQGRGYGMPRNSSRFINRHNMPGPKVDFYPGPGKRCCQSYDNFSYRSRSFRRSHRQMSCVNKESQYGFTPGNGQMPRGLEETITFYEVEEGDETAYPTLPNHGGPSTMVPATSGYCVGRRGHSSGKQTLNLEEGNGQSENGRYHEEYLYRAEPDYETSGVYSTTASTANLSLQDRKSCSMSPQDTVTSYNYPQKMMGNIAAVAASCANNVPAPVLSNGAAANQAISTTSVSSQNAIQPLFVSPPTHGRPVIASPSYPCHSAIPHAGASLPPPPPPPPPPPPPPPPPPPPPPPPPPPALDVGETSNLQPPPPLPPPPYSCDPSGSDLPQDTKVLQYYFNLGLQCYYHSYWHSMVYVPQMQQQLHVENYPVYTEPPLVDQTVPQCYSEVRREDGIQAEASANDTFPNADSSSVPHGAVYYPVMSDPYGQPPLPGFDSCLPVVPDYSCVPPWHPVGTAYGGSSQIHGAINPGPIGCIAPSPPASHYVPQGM
UniProt P51825: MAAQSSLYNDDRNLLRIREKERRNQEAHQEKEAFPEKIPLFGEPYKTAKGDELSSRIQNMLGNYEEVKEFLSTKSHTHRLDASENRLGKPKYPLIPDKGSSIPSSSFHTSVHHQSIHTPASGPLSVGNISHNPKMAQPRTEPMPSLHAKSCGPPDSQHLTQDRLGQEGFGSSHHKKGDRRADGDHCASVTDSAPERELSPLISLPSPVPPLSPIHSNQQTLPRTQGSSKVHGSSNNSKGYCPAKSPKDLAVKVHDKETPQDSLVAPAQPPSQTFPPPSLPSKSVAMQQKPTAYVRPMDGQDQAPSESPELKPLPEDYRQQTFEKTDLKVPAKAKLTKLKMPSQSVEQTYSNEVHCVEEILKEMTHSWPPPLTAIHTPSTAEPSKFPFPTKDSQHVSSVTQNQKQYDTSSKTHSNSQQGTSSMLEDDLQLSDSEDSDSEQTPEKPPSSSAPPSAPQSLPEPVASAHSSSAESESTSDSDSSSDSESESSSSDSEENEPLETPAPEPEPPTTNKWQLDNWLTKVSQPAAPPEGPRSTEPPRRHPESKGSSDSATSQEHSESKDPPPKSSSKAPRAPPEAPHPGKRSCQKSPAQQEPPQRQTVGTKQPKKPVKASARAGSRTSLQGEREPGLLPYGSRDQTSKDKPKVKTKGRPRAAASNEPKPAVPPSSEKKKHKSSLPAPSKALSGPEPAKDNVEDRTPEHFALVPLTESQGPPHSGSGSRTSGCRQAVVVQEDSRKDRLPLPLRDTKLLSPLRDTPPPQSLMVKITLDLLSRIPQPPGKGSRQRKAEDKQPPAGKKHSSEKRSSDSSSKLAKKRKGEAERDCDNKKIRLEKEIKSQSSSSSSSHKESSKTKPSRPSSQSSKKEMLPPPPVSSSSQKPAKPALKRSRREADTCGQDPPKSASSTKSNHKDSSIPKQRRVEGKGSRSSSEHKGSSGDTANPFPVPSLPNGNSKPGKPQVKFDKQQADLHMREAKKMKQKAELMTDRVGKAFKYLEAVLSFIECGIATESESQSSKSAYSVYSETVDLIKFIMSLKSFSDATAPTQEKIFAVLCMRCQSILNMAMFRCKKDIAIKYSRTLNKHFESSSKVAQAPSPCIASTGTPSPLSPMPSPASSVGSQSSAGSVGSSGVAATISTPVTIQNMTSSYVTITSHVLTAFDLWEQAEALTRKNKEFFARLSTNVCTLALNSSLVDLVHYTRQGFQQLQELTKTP
UniProt Q9UKA4: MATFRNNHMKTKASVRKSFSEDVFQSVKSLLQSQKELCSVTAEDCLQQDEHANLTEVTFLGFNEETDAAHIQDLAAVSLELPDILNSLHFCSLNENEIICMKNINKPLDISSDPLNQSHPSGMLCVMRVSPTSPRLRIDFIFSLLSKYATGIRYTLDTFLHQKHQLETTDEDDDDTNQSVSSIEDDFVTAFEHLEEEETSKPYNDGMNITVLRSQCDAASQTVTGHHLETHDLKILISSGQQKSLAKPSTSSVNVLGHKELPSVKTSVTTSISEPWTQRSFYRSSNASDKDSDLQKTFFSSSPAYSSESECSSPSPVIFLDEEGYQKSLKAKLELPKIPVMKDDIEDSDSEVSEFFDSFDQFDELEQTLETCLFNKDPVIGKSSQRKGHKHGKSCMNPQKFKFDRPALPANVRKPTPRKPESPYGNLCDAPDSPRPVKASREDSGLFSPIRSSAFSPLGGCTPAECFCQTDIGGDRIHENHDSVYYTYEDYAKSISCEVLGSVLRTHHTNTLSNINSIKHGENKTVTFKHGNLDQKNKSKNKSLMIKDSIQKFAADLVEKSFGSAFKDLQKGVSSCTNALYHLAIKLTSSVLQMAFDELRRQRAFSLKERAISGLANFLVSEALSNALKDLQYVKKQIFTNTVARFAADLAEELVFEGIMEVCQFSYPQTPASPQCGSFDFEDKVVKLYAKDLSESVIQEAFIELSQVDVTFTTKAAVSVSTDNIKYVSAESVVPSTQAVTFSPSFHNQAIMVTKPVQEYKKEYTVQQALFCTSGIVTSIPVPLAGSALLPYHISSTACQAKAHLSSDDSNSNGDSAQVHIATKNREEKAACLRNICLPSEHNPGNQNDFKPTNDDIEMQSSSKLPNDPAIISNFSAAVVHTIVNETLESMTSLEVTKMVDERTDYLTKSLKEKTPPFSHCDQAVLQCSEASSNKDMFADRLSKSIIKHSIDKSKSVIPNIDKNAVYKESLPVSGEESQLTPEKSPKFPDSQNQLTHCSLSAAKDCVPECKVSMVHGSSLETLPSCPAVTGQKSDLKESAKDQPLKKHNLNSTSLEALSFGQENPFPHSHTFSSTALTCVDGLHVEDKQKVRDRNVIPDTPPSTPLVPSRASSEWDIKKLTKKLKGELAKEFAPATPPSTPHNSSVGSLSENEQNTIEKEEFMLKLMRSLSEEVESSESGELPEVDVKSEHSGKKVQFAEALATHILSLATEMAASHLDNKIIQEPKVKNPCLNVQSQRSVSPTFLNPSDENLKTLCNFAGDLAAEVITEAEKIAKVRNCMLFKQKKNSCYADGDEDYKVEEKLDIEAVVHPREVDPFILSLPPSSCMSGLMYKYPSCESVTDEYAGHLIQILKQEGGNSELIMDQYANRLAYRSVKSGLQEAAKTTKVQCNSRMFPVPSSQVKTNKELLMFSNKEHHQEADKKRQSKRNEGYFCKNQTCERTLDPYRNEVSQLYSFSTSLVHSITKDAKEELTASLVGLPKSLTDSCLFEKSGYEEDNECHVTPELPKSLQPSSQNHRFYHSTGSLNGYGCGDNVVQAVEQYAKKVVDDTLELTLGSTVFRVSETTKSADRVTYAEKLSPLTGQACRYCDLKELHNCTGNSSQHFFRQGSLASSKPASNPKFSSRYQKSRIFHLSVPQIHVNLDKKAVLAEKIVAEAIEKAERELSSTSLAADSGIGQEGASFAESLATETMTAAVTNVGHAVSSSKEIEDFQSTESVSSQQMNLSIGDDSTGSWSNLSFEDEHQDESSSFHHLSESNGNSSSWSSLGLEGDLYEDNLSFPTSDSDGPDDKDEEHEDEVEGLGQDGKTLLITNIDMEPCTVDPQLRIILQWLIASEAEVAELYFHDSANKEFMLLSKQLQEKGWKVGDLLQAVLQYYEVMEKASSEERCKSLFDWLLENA
UniProt Q9Y4X0: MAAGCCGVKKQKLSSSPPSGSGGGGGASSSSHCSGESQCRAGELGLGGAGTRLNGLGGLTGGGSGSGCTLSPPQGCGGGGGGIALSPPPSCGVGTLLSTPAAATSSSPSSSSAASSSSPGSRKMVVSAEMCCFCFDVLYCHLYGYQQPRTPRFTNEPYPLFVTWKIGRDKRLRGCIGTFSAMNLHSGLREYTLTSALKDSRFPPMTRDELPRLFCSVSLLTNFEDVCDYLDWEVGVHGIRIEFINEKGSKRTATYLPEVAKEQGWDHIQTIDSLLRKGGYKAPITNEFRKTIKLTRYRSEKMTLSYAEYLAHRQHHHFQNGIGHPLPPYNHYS

What was measured:
Assay in all cases: log2 fold change, soluble protein after heating vs DMSO (PISA); higher = thermal stabilisation; K562 cells, 10 uM, 30 min; active = over 0.2 and 3.5 SD of the protein, either way, in both replicates (recomputed)
[1] = compound: C1=CC=C(C=C1)[C@H](COC2=CC3=C(C=C2)NC(=O)N3)NC(=O)C4=CC=CN(C4=O)CC5=CC(=C(C=C5)F)F
In short: (§1)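 K562 cells at 2×10^6 cells/mL were treated with 10 μM compound for 30 min. Aliquots were heated for 3 min across 48°C-58°C, pooled, and extracted in PBS with 0.5% NP-40 at 4°C; soluble protein was the supernatant after 21,000xg for 90 min. Soluble protein was quantified by TMTpro 16plex LC-MS/MS with channel sums equalised, and reported as log2 fold change in thermal stability against DMSO controls, with values from duplicates.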

[2] = compound: CC1=C2C(=CC=C1)N=C(N(C2=O)C3=CC=CC=C3C)CN4C=NC5=C(N=CN=C54)N
In short: as §1

[3] = compound: CC1=C(SC2=C1C(=N[C@H](C3=NN=C(N32)C)CC(=O)N)C4=CC=C(C=C4)Cl)C
In short: as §1

[4] = compound: Cc1sc2c(c1C)C(c1ccc(Cl)cc1)=N[C@@H](CC(=O)OC(C)(C)C)c1nnc(C)n1-2
In short: as §1

[5] = compound: c1ccc([C@@H]2C[C@H]2NC2CCNCC2)cc1
In short: as §1

Row | Target | log2 fold change [1] | log2 fold change [2] | log2 fold change [3] | log2 fold change [4] | log2 fold change [5]
1 | ALDH3A2 isoform 2 (UniProt P51648) | inactive: 0.01 | inactive: 0.294 |  |  | 
2 | ADD3 isoform 2 (UniProt Q9UEY8) |  | inactive: -0.038 | inactive: -0.075 | inactive: 0.007 | inactive: 0
3 | ALDOA (UniProt P04075) | inactive: 0.08 | inactive: 0.028 |  | inactive: -0.179 | 
4 | ADGRV1 (UniProt Q8WXG9) | inactive: -0.133 |  | inactive: 0.005 |  | inactive: 0.085
5 | AGAP1 (UniProt Q9UPQ3) |  | inactive: -0.003 | inactive: -0.046 |  | inactive: 0.073
6 | ADD1 isoform 4 (UniProt P35611) | inactive: -0.03 |  | inactive: 0.04 |  | inactive: 0.217
7 | ALG13 isoform 2 (UniProt Q9NP73) | inactive: -0.056 | inactive: 0 |  |  | 
8 | ALDH2 isoform 2 (UniProt P05091) | inactive: -0.092 | inactive: 0.379 |  | inactive: 0.074 | 
9 | AMBP (UniProt P02760) | inactive: -0.09 | inactive: 0.076 | inactive: -0.053 |  | inactive: 0.079
10 | ADCY7 (UniProt P51828) |  |  | inactive: 0.055 |  | inactive: -0.019
11 | AKIRIN2 (UniProt Q53H80) |  | inactive: 0.063 | inactive: 0.113 | inactive: -0.069 | inactive: 0.015
12 | AIF1 (UniProt P55008) | inactive: -0.114 | inactive: 0.04 |  |  | 
13 | AGTPBP1 isoform 3 (UniProt Q9UPW5) |  | inactive: 0.225 |  |  | 
14 | ADCY3 (UniProt O60266) |  | inactive: 0.187 | inactive: 0.083 | inactive: -0.094 | inactive: 0.088
15 | ADPRH (UniProt P54922) | inactive: -0.035 | inactive: 0.344 |  | inactive: -0.121 | 
16 | ADGRD1 isoform 4 (UniProt Q6QNK2) |  | inactive: 0.216 | inactive: -0.048 | inactive: 0.028 | inactive: 0.026
17 | ALKBH7 (UniProt Q9BT30) |  |  | inactive: 0.124 |  | inactive: 0.092
18 | ALKBH8 isoform 4 (UniProt Q96BT7) | inactive: -0.052 |  | inactive: 0.161 |  | inactive: -0.34

Row | Target | log2 fold change [1] | log2 fold change [2] | log2 fold change [3] | log2 fold change [4] | log2 fold change [5]
19 | AGTRAP isoform 2 (UniProt Q6RW13) |  |  |  | inactive: 0.077 | 
20 | AIG1 (UniProt Q9NVV5) |  |  |  | inactive: -0.01 | 
21 | AFDN isoform 1 (UniProt P55196) | inactive: 0.038 | inactive: 0.029 | inactive: -0.119 |  | inactive: 0.177
22 | ADGRE2 (UniProt Q9UHX3) | inactive: -0.075 | inactive: 0.072 |  | inactive: -0.103 | 
23 | AFF1 isoform 2 (UniProt P51825) | inactive: -0.333 | inactive: -0.09 |  |  | 
24 | AMDHD2 (UniProt Q9Y303) |  | inactive: -0.023 | inactive: 0.053 | inactive: 0.151 | inactive: 0.019
25 | AKNA (UniProt Q7Z591) |  |  | inactive: 0.071 |  | inactive: 0.206
26 | AGAP3 isoform 4 (UniProt Q96P47) | inactive: -0.08 |  | inactive: -0.023 | inactive: -0.006 | inactive: 0.05
27 | ALS2 (UniProt Q96Q42) |  |  |  | inactive: 0.016 | 
28 | AKAP11 (UniProt Q9UKA4) |  |  | inactive: -0.124 |  | inactive: -0.117
29 | AFMID isoform 2 (UniProt Q63HM1) |  | inactive: -0.071 |  |  | 
30 | AIF1L isoform 2 (UniProt Q9BQI0) | inactive: -0.093 | inactive: -0.23 | inactive: -0.099 |  | inactive: -0.05
31 | AGA (UniProt P20933) | inactive: 0.012 |  | inactive: -0.395 |  | inactive: 0.073
32 | AMD1 (UniProt P17707) | inactive: -0.021 | inactive: 0.168 |  | inactive: -0.164 | 
33 | AMMECR1 (UniProt Q9Y4X0) |  | inactive: 0.097 | inactive: -0.085 |  | inactive: 0.004
34 | AGPAT4 (UniProt Q9NRZ5) | inactive: -0.001 |  | inactive: 0.047 | inactive: -0.065 | inactive: -0.003
35 | AKAP9 isoform 6 (UniProt Q99996) |  |  | inactive: -0.276 |  | inactive: -0.174

Rewritten in markdown: entries from further up.

| Row | Target | log2 fold change [1] | log2 fold change [2] | log2 fold change [3] | log2 fold change [4] | log2 fold change [5] |
| --- | --- | --- | --- | --- | --- | --- |
| 21 | AFDN isoform 1 (UniProt P55196) | inactive: 0.038 | inactive: 0.029 | inactive: -0.119 |  | inactive: 0.177 |
| 22 | ADGRE2 (UniProt Q9UHX3) | inactive: -0.075 | inactive: 0.072 |  | inactive: -0.103 |  |
